Reference: PMC7982829
No constants are given. Whether binding was seen depends on the method and setting. Binding seen in cells or lysates may run through a third protein. Some binding calls cover weakened binding; strength is not graded here.

T1: CCT8 (T-complex protein 1 subunit theta), endogenous in mouse testis (mouse (endogenous in testis)) (UniProt P42932)
T1 sequence: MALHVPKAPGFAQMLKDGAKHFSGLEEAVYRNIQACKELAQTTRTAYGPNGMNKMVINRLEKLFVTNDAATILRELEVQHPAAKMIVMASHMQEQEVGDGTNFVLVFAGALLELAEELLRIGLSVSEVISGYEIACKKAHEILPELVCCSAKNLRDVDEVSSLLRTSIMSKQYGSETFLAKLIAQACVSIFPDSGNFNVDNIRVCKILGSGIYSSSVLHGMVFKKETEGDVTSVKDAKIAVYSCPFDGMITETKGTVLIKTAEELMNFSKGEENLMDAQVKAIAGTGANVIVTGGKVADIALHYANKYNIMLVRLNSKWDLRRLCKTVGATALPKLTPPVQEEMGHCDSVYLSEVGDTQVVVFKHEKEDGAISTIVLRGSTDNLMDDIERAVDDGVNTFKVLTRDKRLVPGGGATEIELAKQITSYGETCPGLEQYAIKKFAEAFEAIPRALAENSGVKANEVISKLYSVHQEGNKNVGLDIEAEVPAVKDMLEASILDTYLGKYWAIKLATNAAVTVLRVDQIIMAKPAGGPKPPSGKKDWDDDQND

T2: TULP2 (tubby-like protein 2), endogenous in mouse testis (mouse (endogenous in testis)) (UniProt P46686)
T2 sequence: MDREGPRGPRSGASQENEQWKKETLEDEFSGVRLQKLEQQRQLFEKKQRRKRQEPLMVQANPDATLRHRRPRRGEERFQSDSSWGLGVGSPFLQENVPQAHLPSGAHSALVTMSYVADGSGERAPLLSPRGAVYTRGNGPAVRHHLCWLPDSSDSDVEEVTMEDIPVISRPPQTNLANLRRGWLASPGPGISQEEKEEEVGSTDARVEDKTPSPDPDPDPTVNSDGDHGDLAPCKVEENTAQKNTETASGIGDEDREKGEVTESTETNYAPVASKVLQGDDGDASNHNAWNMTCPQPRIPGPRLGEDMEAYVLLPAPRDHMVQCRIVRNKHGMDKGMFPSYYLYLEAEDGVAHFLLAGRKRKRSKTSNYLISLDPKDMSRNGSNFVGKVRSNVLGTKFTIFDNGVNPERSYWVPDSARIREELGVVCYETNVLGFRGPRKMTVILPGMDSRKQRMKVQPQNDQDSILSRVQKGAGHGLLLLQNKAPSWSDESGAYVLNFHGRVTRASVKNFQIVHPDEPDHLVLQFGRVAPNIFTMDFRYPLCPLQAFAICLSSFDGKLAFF

B1: TULP2 (tubby-like protein 2), endogenous in mouse testis (protein, UniProt P46686 1-562)
chain: T2 sequence
B2: CCT8 (T-complex protein 1 subunit theta), endogenous in mouse testis (protein, UniProt P42932 1-548)
chain: T1 sequence

What was measured:
[1] = target: T1, CCT8 (T-complex protein 1 subunit theta), endogenous in mouse testis (mouse (endogenous in testis)); assay: co-IP; testes of WT mice lysed in RIPA buffer; pre-cleared with Protein A/G magnetic beads, incubated with anti-TULP2 or anti-CCT8 antibody at 4°C overnight; normal IgG as control; western blotting
[2] = target: T2, TULP2 (tubby-like protein 2), endogenous in mouse testis (mouse (endogenous in testis)); assay: as above

| Binder | binding [1] | binding [2] |
| --- | --- | --- |
| B1 | binds | – |
| B2 | – | binds |
